Sequences and labels used below:
B1: MYT1142 (antibody, V domains shown)
VH: QVQLVQSGAEVVKPGASVKISCKHSGHTFTGYFMNWVKQSPGQSLEWIGRIHPYDGDTFYNQKFQGKATLTVDKSSNTAHMELLSLTSEDFAVYYCTRYDGSRAMDYWGQGTTVTVSS
VL: DIVLTQSPLSLAVSLGQPAIISCKASQSVSFAGTSLMHWYHQKPGQQPRLLIYRASNLEAGVPDRFSGSGSKTDFTLTISPVEAEDAATYYCQQSREYPYTFGGGTKLEIK
B2: MYT1147 (antibody, V domains shown)
VH: QVQLVQSGAEVVKPGASVKISCKASGHTFTGYFMNWVKQSPGQSLEWIGRIHPYDGDHFYNQKFQGKATLTVDKSSNTAHMELLSLTSEDFAVYYCTRYDGSRAMDYWGQGTTVTVSS
VL: DIVLTQSPLSLAVSLGQPAIISCKASQSVSFAGTSLMHWYHQKPGQQPRLLIYRASNLEAGVPDRFSGSGSKTDFTLTISPVEAEDAATYYCQQSREYPYTFGGGTKLEIK
B3: MYT1144 (antibody, V domains shown)
VH: QVQLVQSGAEVVKPGASVKISCKHSGYTFTGYFMNWVKQSPGQSLEWIGRIHPYDGDHFYNQKFQGKATLTVDKSSNTAHMELLSLTSEDFAVYYCTRYDGSRAMDYWGQGTTVTVSS
VL: DIVLTQSPLSLAVSLGQPAIISCKASQSVSFAGTSLMHWYHQKPGQQPRLLIYRASNLEAGVPDRFSGSGSKTDFTLTISPVEAEDAATYYCQQSREYPYTFGGGTKLEIK
B4: MYT1145 (antibody, V domains shown)
VH: QVQLVQSGAEVVKPGASVKISCKHSGYTFTGYFMNWVKQSPGQSLEWIGRIHPYDGDTHYNQKFQGKATLTVDKSSNTAHMELLSLTSEDFAVYYCTRYDGSRAMDYWGQGTTVTVSS
VL: DIVLTQSPLSLAVSLGQPAIISCKASQSVSFAGTSLMHWYHQKPGQQPRLLIYRASNLEAGVPDRFSGSGSKTDFTLTISPVEAEDAATYYCQQSREYPYTFGGGTKLEIK
B5: MYT1149 (antibody, V domains shown)
VH: QVQLVQSGAEVVKPGASVKISCKASGYTFTGYFMNWVKQSPGQSLEWIGRIHPHDGDHFYNQKFQGKATLTVDKSSNTAHMELLSLTSEDFAVYYCTRYDGSRAMDYWGQGTTVTVSS
VL: DIVLTQSPLSLAVSLGQPAIISCKASQSVSFAGTSLMHWYHQKPGQQPRLLIYRASNLEAGVPDRFSGSGSKTDFTLTISPVEAEDAATYYCQQSREYPYTFGGGTKLEIK
B6: MYT1150 (antibody, V domains shown)
VH: QVQLVQSGAEVVKPGASVKISCKASGYTFTGYFMNWVKQSPGQSLEWIGRIHPHDGDTHYNQKFQGKATLTVDKSSNTAHMELLSLTSEDFAVYYCTRYDGSRAMDYWGQGTTVTVSS
VL: DIVLTQSPLSLAVSLGQPAIISCKASQSVSFAGTSLMHWYHQKPGQQPRLLIYRASNLEAGVPDRFSGSGSKTDFTLTISPVEAEDAATYYCQQSREYPYTFGGGTKLEIK
B7: MYT1151 (antibody, V domains shown)
VH: QVQLVQSGAEVVKPGASVKISCKASGYTFTGYFMNWVKQSPGQSLEWIGRIHPYDGDHHYNQKFQGKATLTVDKSSNTAHMELLSLTSEDFAVYYCTRYDGSRAMDYWGQGTTVTVSS
VL: DIVLTQSPLSLAVSLGQPAIISCKASQSVSFAGTSLMHWYHQKPGQQPRLLIYRASNLEAGVPDRFSGSGSKTDFTLTISPVEAEDAATYYCQQSREYPYTFGGGTKLEIK
B8: MYT1143 (antibody, V domains shown)
VH: QVQLVQSGAEVVKPGASVKISCKHSGYTFTGYFMNWVKQSPGQSLEWIGRIHPHDGDTFYNQKFQGKATLTVDKSSNTAHMELLSLTSEDFAVYYCTRYDGSRAMDYWGQGTTVTVSS
VL: DIVLTQSPLSLAVSLGQPAIISCKASQSVSFAGTSLMHWYHQKPGQQPRLLIYRASNLEAGVPDRFSGSGSKTDFTLTISPVEAEDAATYYCQQSREYPYTFGGGTKLEIK
B9: MYT1146 (antibody, V domains shown)
VH: QVQLVQSGAEVVKPGASVKISCKASGHTFTGYFMNWVKQSPGQSLEWIGRIHPHDGDTFYNQKFQGKATLTVDKSSNTAHMELLSLTSEDFAVYYCTRYDGSRAMDYWGQGTTVTVSS
VL: DIVLTQSPLSLAVSLGQPAIISCKASQSVSFAGTSLMHWYHQKPGQQPRLLIYRASNLEAGVPDRFSGSGSKTDFTLTISPVEAEDAATYYCQQSREYPYTFGGGTKLEIK
B10: MYT1148 (antibody, V domains shown)
VH: QVQLVQSGAEVVKPGASVKISCKASGHTFTGYFMNWVKQSPGQSLEWIGRIHPYDGDTHYNQKFQGKATLTVDKSSNTAHMELLSLTSEDFAVYYCTRYDGSRAMDYWGQGTTVTVSS
VL: DIVLTQSPLSLAVSLGQPAIISCKASQSVSFAGTSLMHWYHQKPGQQPRLLIYRASNLEAGVPDRFSGSGSKTDFTLTISPVEAEDAATYYCQQSREYPYTFGGGTKLEIK
B11: MYT1152 (antibody, V domains shown)
VH: QVQLVQSGAEVVKPGASVKISCKHSGHTFTGYFMNWVKQSPGQSLEWIGRIHPHDGDTFYNQKFQGKATLTVDKSSNTAHMELLSLTSEDFAVYYCTRYDGSRAMDYWGQGTTVTVSS
VL: DIVLTQSPLSLAVSLGQPAIISCKASQSVSFAGTSLMHWYHQKPGQQPRLLIYRASNLEAGVPDRFSGSGSKTDFTLTISPVEAEDAATYYCQQSREYPYTFGGGTKLEIK
B12: MYT1153 (antibody, V domains shown)
VH: QVQLVQSGAEVVKPGASVKISCKHSGHTFTGYFMNWVKQSPGQSLEWIGRIHPYDGDHFYNQKFQGKATLTVDKSSNTAHMELLSLTSEDFAVYYCTRYDGSRAMDYWGQGTTVTVSS
VL: DIVLTQSPLSLAVSLGQPAIISCKASQSVSFAGTSLMHWYHQKPGQQPRLLIYRASNLEAGVPDRFSGSGSKTDFTLTISPVEAEDAATYYCQQSREYPYTFGGGTKLEIK

Amino acid sequences for entries named in this document (tags omitted). A change or cut given only in a name is not applied to a line headed by its entry.
UniProt P15328: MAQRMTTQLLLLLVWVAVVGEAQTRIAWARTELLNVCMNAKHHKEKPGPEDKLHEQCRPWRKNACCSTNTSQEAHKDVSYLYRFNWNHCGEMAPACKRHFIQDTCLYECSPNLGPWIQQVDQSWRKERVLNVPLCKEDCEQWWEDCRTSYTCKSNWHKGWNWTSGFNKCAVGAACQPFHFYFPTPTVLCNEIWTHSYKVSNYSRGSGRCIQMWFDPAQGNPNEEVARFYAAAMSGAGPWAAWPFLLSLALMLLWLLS

Drawing on patent US20220298260A1, this text covers binding for twelve molecules.

These are yes or no findings as the source states them, for the method shown. Some results given as binding are weak or reduced against the parent protein; the word gives no strength.

For the assay, the target named is FOLR1 (R&D Systems, Cat #5646-FR) (human) (UniProt P15328). The experiment in a line: BLI, IgG on anti-human Fc sensor, 50 nM FOLR1. For orientation: BLI is a label-free optical method that tracks binding on a fibre tip over time.
With B1, the binding entry is reported as “binds”. With B2 the entry was “binds”; with B3, “binds”.

As for B4, the binding entry is reported as “binds”. With B5 the entry was “binds”; with B6, “binds”. On to B7, for which the binding result is “binds”.

Consider B8, for which the binding entry is given as “binds”.

In the case of B9, the binding entry is reported as “binds”. Regarding B10, the binding result was “binds”.

For the molecule B11, the binding entry is recorded as “binds”. Under B12 stands “binds”.
